These are yes or no findings as the source states them, for the method shown. Some results given as binding are weak or reduced against the parent protein; the word gives no strength.
T1: CRY1 photolyase homology region (PHR), residues 1-491 (human) (UniProt Q16526)
T1 sequence: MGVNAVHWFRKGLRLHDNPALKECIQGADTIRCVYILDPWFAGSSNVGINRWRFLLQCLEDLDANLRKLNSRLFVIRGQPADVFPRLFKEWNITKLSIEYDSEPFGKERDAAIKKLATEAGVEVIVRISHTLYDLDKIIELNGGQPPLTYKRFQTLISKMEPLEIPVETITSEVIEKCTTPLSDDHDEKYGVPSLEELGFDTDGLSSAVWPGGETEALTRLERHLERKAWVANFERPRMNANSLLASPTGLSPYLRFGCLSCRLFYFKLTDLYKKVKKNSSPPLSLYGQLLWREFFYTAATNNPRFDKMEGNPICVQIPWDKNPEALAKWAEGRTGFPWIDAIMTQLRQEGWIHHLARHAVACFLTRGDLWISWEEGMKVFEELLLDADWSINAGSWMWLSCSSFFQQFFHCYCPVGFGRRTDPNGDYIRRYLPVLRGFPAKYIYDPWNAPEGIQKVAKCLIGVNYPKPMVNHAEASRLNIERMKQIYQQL


How the values were obtained:
[1] = target: T1, CRY1 photolyase homology region (PHR), residues 1-491 (human); assay: fluorescence polarisation
[2] = target: T1, CRY1 photolyase homology region (PHR), residues 1-491 (human); assay: fluorescence polarisation; remark: listed apart in the source
[3] = target: T1, CRY1 photolyase homology region (PHR), residues 1-491 (human); assay: NMR titration

| Molecule | binding [1] | binding [2] | binding [3] |
| --- | --- | --- | --- |
| human CRY1 tail exons 10 and 11 (residues 496-554) (from UniProt Q16526 496-554) (domain or fragment) | binds | – | – |
| human CRY1 tail (residues 492-586) (domain or fragment, UniProt Q16526 492-586, looked up, fluorescein (FAM) on the N-terminus in the FP binding assays) SRYRGLGLLASVPSNPNGNGGFMGYSAENIPGCSSSGSCSQGSGILHYAHGDSQQTHLLKQGRSSMGTGLSGGKRPSQEEDTQSIGPKVQRQSTN | – | binds | binds |

Reference: doi:10.1101/758714 (bioRxiv, 2019)
